The values that follow are results of earlier work, collected in publication PMC6402191 (Clinical and Translational Science, 2017).

For the data set the following is noted: cited from earlier work.

For the molecule `NS(=O)(=O)c1cc(C(=O)O)c(NCc2ccco2)cc1Cl` [furosemide], the “increase of AUC by probenecid” value is 2.6 fold.
